Laboratory results as given in the supplement of paper PMC10849652.
Some of the results follow.

By UniProt entry, the sequences of proteins in these tests, tags left out. Where a name states a change or a piece, a line headed by the entry shows the natural chain unless it says otherwise.
UniProt P14625, whole entry, looked up: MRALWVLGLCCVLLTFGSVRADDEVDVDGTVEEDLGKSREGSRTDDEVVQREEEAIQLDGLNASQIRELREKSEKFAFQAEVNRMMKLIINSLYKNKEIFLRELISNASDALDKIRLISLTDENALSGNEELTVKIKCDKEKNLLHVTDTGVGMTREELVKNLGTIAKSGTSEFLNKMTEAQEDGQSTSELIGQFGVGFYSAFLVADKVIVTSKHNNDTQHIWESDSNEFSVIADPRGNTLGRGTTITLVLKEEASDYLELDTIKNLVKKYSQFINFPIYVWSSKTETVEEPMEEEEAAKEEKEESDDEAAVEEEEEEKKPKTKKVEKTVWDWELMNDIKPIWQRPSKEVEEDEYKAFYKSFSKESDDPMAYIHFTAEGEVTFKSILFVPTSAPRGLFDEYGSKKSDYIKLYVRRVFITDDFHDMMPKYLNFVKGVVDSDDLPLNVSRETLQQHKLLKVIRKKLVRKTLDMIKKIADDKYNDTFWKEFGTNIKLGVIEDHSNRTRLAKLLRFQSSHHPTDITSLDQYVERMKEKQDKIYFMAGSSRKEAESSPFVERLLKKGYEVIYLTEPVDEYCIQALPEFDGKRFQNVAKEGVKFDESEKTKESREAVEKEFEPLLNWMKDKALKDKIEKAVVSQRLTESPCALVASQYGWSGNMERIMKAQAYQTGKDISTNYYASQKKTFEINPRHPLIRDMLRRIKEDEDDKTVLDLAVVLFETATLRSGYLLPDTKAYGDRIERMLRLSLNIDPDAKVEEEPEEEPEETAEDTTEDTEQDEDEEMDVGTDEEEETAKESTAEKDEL
UniProt Q9Y241: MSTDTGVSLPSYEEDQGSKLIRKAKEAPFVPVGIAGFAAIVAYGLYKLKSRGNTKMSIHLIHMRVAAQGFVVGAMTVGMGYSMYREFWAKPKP
UniProt O75506: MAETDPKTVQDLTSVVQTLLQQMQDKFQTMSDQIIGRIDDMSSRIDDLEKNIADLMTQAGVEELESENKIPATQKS
UniProt P48723: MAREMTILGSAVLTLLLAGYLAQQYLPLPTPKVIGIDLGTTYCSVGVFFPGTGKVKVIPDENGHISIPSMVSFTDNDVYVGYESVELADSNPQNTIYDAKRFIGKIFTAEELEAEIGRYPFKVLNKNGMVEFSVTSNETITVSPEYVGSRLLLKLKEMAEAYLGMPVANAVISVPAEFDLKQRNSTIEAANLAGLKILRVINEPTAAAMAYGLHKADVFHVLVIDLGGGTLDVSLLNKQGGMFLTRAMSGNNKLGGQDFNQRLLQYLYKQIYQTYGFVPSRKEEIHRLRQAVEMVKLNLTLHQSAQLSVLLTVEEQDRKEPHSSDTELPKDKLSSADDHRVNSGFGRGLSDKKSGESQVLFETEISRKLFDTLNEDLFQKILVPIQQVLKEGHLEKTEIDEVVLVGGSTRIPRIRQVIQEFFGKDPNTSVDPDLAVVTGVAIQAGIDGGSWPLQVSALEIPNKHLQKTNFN
UniProt P26583: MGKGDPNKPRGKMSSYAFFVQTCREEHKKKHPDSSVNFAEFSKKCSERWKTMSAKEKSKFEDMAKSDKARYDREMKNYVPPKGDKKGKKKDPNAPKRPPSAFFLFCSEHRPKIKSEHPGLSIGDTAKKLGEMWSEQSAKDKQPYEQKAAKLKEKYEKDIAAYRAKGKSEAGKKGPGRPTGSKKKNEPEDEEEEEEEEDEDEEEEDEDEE
UniProt P17482: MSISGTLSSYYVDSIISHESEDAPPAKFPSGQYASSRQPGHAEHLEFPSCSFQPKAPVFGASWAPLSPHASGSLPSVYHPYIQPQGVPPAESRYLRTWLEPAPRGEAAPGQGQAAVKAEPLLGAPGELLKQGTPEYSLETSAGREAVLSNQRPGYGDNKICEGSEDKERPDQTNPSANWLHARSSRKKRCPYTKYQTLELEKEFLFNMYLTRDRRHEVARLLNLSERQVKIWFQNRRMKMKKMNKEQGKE
UniProt P09651: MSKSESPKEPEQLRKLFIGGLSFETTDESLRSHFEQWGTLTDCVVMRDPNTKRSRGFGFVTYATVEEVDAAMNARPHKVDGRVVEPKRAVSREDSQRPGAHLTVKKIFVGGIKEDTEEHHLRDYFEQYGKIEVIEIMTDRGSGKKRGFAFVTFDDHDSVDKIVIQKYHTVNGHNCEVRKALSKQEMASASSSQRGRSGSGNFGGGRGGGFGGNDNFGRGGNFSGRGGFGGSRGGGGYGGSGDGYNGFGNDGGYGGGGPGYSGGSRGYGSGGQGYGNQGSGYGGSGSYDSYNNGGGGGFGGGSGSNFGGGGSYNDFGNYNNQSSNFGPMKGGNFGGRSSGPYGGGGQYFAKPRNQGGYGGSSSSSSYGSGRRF
UniProt Q86YM7: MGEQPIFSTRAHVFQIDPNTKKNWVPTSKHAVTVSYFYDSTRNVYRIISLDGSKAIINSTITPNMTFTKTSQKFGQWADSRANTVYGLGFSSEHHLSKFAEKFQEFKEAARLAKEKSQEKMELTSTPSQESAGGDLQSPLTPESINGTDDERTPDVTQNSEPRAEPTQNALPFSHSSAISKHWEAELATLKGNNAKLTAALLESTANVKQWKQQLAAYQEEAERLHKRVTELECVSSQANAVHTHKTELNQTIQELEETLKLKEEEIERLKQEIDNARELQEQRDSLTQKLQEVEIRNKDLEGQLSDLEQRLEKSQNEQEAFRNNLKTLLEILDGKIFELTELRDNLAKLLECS
UniProt Q3SXM5: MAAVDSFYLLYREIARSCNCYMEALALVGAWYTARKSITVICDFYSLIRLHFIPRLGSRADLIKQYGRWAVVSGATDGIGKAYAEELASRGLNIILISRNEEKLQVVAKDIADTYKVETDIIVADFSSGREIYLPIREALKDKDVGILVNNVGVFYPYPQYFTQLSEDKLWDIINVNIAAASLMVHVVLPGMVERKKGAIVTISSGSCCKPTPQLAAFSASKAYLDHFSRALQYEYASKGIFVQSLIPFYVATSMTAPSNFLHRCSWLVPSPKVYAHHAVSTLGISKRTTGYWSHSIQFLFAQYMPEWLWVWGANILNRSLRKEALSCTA
UniProt P52789: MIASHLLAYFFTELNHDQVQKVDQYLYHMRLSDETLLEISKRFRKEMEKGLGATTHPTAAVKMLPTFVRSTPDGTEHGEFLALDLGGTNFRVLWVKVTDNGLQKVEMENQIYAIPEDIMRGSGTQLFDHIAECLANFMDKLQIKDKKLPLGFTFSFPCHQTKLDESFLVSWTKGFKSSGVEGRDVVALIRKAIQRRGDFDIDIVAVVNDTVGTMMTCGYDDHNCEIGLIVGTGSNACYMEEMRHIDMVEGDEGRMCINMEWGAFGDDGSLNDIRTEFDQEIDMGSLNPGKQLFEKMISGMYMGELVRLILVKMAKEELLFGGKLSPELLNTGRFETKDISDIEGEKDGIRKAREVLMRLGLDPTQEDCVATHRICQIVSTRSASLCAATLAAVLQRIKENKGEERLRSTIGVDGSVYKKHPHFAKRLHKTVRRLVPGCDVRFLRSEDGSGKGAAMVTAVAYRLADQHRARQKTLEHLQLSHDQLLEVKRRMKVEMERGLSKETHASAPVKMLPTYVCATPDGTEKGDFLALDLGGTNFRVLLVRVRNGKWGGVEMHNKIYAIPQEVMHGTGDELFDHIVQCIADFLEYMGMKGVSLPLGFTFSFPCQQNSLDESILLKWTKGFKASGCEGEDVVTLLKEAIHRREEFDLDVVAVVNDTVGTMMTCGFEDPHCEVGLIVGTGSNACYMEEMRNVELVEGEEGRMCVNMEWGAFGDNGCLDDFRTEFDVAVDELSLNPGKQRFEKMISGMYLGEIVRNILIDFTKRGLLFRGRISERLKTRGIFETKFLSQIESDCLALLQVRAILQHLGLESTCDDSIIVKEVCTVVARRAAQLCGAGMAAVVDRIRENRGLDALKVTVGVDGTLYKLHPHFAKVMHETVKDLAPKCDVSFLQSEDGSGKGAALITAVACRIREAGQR
UniProt P05362: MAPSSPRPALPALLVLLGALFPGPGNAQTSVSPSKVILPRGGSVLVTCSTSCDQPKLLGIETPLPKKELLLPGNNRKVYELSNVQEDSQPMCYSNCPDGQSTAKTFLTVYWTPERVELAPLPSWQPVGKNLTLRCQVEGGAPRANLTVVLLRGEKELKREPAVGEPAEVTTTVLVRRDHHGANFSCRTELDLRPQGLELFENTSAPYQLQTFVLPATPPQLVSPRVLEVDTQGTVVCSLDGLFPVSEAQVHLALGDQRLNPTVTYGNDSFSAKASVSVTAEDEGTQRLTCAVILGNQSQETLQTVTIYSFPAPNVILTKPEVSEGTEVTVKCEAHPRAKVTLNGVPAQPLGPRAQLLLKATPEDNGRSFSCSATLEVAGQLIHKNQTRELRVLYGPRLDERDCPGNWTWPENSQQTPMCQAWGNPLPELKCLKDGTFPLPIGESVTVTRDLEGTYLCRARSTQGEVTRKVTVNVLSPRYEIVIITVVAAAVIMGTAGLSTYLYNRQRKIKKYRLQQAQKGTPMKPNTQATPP
UniProt O60921: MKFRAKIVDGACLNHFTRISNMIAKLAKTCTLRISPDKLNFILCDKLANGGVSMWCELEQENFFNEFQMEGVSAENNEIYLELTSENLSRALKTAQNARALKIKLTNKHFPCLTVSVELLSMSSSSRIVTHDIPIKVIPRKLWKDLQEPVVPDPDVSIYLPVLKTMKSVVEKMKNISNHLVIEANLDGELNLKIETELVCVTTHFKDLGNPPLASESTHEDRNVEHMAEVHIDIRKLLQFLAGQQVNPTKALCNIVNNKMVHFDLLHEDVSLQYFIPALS
UniProt Q9NQE9: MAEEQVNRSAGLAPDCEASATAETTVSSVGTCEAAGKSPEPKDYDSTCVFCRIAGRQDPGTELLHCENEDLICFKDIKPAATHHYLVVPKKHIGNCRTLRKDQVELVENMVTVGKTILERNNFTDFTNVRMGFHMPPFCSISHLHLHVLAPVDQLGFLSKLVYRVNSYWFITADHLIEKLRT
UniProt P52272: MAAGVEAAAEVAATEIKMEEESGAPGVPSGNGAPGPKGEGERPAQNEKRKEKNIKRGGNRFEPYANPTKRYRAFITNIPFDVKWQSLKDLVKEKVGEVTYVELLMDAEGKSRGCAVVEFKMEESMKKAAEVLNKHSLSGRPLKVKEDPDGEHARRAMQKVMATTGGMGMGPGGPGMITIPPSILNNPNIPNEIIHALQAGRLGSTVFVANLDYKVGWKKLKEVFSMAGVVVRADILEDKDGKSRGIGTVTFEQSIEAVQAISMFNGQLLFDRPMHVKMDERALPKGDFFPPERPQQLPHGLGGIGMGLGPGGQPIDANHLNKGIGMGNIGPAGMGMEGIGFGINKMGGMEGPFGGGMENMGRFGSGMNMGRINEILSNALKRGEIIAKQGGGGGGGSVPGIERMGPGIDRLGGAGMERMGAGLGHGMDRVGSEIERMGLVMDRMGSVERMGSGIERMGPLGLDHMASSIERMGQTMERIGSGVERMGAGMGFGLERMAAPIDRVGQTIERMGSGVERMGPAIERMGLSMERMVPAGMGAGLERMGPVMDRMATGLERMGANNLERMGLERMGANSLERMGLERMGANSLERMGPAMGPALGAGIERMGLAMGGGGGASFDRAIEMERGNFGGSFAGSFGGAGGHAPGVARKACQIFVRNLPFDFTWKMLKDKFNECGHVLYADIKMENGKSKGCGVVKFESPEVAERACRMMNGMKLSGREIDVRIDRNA
UniProt P04792, whole entry, looked up: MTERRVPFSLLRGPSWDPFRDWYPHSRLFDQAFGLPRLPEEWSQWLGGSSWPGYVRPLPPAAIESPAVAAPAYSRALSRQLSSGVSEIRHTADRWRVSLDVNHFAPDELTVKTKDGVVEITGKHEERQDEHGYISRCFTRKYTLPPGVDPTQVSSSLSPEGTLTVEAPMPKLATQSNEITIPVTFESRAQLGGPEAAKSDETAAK
UniProt P23327: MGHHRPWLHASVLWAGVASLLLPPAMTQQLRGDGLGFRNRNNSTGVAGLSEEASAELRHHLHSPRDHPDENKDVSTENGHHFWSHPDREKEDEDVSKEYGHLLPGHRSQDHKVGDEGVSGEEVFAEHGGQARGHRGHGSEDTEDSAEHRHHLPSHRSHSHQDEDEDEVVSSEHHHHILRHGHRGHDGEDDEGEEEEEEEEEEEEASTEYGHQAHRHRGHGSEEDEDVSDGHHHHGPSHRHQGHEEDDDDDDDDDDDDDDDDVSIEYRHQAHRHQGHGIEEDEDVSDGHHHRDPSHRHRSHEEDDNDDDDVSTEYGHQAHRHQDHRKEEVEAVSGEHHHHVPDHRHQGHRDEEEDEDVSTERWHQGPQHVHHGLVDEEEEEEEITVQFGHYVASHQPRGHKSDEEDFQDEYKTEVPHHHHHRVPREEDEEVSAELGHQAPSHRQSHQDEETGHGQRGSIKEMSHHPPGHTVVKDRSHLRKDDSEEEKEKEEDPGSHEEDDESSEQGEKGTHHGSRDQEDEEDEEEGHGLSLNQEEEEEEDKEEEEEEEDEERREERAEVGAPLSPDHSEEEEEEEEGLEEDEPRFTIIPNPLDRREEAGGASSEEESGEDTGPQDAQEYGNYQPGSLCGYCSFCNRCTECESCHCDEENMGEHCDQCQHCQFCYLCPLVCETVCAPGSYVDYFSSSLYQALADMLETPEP

Experiments:
Experiment in all cases: log2 fold change, soluble protein after heating vs DMSO (PISA); higher = thermal stabilisation; K562 cells, 10 uM, 30 min; active = over 0.2 and 3.5 SD of the protein, either way, in both replicates (recomputed)
[1] = compound: C1=CC=C(C=C1)[C@H](COC2=CC3=C(C=C2)NC(=O)N3)NC(=O)C4=CC=CN(C4=O)CC5=CC(=C(C=C5)F)F
Summary of the method: (§1)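 Soluble protein was quantified by TMTpro 16plex LC-MS/MS after channel sums were equalised. It was obtained as the supernatant after 21,000xg for 90 min from pooled aliquots of K562 cells (2×10^6 cells/mL, 10 μM compound, 30 min) heated for 3 min across 48°C-58°C and extracted in PBS with 0.5% NP-40 at 4°C. Thermal stability values are relative to control samples and come from duplicates. They are given as log2 fold changes.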

[2] = compound: CC1=C(SC2=C1C(=N[C@H](C3=NN=C(N32)C)CC(=O)N)C4=CC=C(C=C4)Cl)C
Summary of the method: as §1

[3] = compound: CC1=C2C(=CC=C1)N=C(N(C2=O)C3=CC=CC=C3C)CN4C=NC5=C(N=CN=C54)N
Summary of the method: as §1

[4] = compound: Cc1sc2c(c1C)C(c1ccc(Cl)cc1)=N[C@@H](CC(=O)OC(C)(C)C)c1nnc(C)n1-2
Summary of the method: as §1

[5] = compound: c1ccc([C@@H]2C[C@H]2NC2CCNCC2)cc1
Summary of the method: as §1

Measured: log2 fold change

HPCAL1 (UniProt P37235)
inactive: [1] 0.007 | [2] -0.011 | [3] 0.047 | [4] -0.011 | [5] 0.032

HSP90B1 (UniProt P14625)
inactive: [1] 0.017 | [2] 0.012 | [3] -0.009 | [4] -0.007 | [5] -0.013

HSPA2 (UniProt P54652)
inactive: [1] 0.003

HIGD1A isoform 2 (UniProt Q9Y241)
inactive: [1] 0.083

HSBP1 (UniProt O75506)
inactive: [1] 0.172

HMGCLL1 (UniProt Q8TB92)
inactive: [1] 0.043 | [2] -0.045 | [3] 0.017 | [4] 0.01 | [5] -0.019

HSP90AA1 isoform 2 (UniProt P07900)
inactive: [1] -0.03 | [2] 0.04 | [3] -0.002 | [4] 0.002 | [5] -0.034

HIRIP3 (UniProt Q9BW71)
inactive: [1] 0.004 | [2] -0.01 | [3] 0.061 | [4] -0.038 | [5] -0.013

2 entries drawn at random from the list so far, as already listed:
HSP90AA1 isoform 2 (UniProt P07900)
inactive: [1] -0.03 | [2] 0.04 | [3] -0.002 | [4] 0.002 | [5] -0.034

HMGCLL1 (UniProt Q8TB92)
inactive: [1] 0.043 | [2] -0.045 | [3] 0.017 | [4] 0.01 | [5] -0.019

Further records follow.

HMCN1 (UniProt Q96RW7)
inactive: [1] -0.101 | [2] -0.039 | [3] -0.01 | [4] -0.003 | [5] -0.01

HSPA13 (UniProt P48723)
inactive: [1] 0.008 | [2] 0.019 | [3] 0.034 | [4] -0.046 | [5] -0.022

HINT2 (UniProt Q9BX68)
inactive: [1] 0.004 | [2] 0.067 | [3] 0.114 | [4] -0.203 | [5] 0.078

HMGB2 (UniProt P26583)
inactive: [1] 0.035 | [2] 0.029 | [3] -0.015 | [4] -0.02 | [5] 0.006

HOXB9 (UniProt P17482)
inactive: [1] -0.027 | [2] 0.127 | [3] 0.128 | [4] -0.043 | [5] 0.033

HNRNPA1 (UniProt P09651)
inactive: [1] 0.169 | [2] -0.207 | [3] -0.151 | [4] 0.134 | [5] 0.016

HK1 isoform 2 (UniProt P19367)
inactive: [1] 0.001 | [2] -0.008 | [3] 0.025 | [4] -0.024 | [5] 0.007

HOMER1 (UniProt Q86YM7)
inactive: [1] -0.08 | [2] 0.035 | [3] 0.02 | [4] -0.005 | [5] 0.007

HNRNPLL (UniProt Q8WVV9)
inactive: [1] -0.105 | [2] -0.067 | [3] 0.078 | [4] -0.098 | [5] -0.015

HSDL1 (UniProt Q3SXM5)
inactive: [1] 0.021 | [2] 0.112 | [3] 0.064 | [4] -0.027 | [5] -0.022

HK2 (UniProt P52789)
inactive: [1] -0.006 | [2] 0.045 | [3] 0.007 | [4] -0.025 | [5] -0.016

ICAM1 (UniProt P05362)
inactive: [1] -0.005 | [2] 0.021 | [3] 0.049 | [4] 0.012 | [5] 0.031

HUS1 (UniProt O60921)
inactive: [1] 0.002 | [2] 0.052 | [3] 0.062 | [4] -0.021 | [5] -0.009

HINT3 (UniProt Q9NQE9)
inactive: [1] -0.017 | [2] 0.042 | [3] 0.008 | [4] -0.029 | [5] 0.022

HNRNPM (UniProt P52272)
inactive: [1] -0.001 | [2] -0.244 | [3] -0.146 | [4] 0.024 | [5] 0.056

HSPB1 (UniProt P04792)
inactive: [1] 0.038 | [2] -0.004 | [3] 0.039 | [4] 0.006 | [5] -0.018

HRC (UniProt P23327)
inactive: [1] 0.026 | [2] -0.042 | [3] 0.055 | [4] 0.014 | [5] 0.033

HSPB11 (UniProt Q9Y547)
inactive: [1] -0.002 | [2] 0.139 | [3] 0.044 | [4] 0.015 | [5] 0.035
